# Data as given in PubChem BioAssay AID720504 (National Center for Advancing Translational Sciences (NCATS), 2013).
# Sequences of proteins named here, by UniProt entry; tags and fusion partners are left off.
# UniProt P53350, whole entry, looked up: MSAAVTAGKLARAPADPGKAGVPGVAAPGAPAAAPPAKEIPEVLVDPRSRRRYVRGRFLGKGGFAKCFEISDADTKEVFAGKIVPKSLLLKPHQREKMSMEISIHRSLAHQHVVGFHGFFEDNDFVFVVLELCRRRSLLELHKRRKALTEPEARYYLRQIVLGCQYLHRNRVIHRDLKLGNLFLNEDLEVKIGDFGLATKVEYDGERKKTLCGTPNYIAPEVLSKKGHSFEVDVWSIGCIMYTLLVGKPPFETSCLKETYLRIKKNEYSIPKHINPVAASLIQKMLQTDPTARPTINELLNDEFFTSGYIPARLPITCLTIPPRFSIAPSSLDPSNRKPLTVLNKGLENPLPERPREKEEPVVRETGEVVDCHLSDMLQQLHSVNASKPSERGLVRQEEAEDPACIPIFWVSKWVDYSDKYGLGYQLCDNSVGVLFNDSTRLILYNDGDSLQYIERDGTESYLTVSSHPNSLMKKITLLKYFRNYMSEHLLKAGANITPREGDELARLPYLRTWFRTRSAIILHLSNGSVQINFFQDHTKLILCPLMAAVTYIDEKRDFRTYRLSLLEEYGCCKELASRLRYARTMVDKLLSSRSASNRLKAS
# Out of some 360,000 compounds screened, about 10,000 (2.8%) were called active. The shares of active, inactive and inconclusive entries below differ from those in the screen. Calls come from the whole dose curve; as a rule, active = well fitted inhibition curve with a large enough effect; inconclusive = small, poorly fitted or top-dose-only effect; inactive = flat fitted curve, though single readings scatter. Potencies of inconclusive entries are doubtful fits and often do not repeat.
# Biological target: Serine/threonine-protein kinase PLK1 (Homo sapiens) (UniProt P53350)
# Assay: qHTS for Inhibitors of PLK1-PDB (polo-like kinase 1 - polo-box domain): Primary Screen; note: nearly all actives have a fitted effect of over 65% in size; for max response, negative = inhibition: series mostly up to about 57 µM
# Conditions: Plk1 PBD binding of FITC phosphopeptide, fluorescence polarization
# % is set by controls: 0 for no effect and ±100 for the full control effect; potency is the fitted concentration of half-maximal effect.
SMILES,Potency,"max response, negative = inhibition"
O=C(COC(=O)c1ccc(S(=O)(=O)N2CCOCC2)cc1)NC1CCCC1,"inconclusive: 26.7 µM [inhibitor, partial curve]",–
Cc1sc2nc3ccc(N4CCCCC4)nn3c(=O)c2c1C,"inconclusive: 15 µM [inhibitor, partial curve]",–
O=[N+]([O-])c1cnccc1-n1nnc2ccccc21,–,inactive: -14.4%
COc1ccc(S(=O)(=O)N2CCC(C(=O)NCc3ccc(C)cc3)CC2)cc1,"inconclusive: 29.9 µM [inhibitor, single point]",–
O=C(N/N=C/C(Br)=C/c1ccccc1)c1ccccc1F,"inconclusive: 37.7 µM [inhibitor, partial curve, poor fit]",–
COc1ccc(F)cc1S(=O)(=O)NCC1CCCO1 (stereo not given),–,inactive: -4.28%
CN1N=C(/C=C/c2ccccc2)CCC1=O,"inconclusive: 18.9 µM [inhibitor, partial curve]",–
O=C(NNS(=O)(=O)c1ccccc1)C1CCN(S(=O)(=O)c2ccccc2)CC1,"inconclusive: 21.2 µM [inhibitor, partial curve]",–
CCOC(=O)C1=C(C)NC(=O)NC1c1ccc(OCC(=O)Nc2ccccc2)c(OC)c1 (stereo not given),–,inactive: 2.16%
S=c1[nH]nc(COc2ccccc2)n1/N=C/c1cccc(Cl)c1Cl,"inconclusive: 29.9 µM [inhibitor, single point]",–
COc1ccc(-c2nsc(C(=O)N(c3ccc(F)cc3)C(C(=O)NC3CCCC3)c3ccc(OC)cc3)c2N)cc1 (stereo not given),–,inactive: -4.3%
O=C(c1ccc(N2CN(C(=O)c3ccco3)c3nc4ccccc4nc32)cc1)N1CCOCC1,–,inactive: 0.186%
Cc1csc(NC(=O)CS(=O)(=O)Cc2ccccc2)n1,–,inactive: -29%
Cc1ccc(S(=O)(=O)Nc2ccccc2-c2ccccc2NS(=O)(=O)c2ccc(C)cc2)cc1,"inconclusive: 29.9 µM [inhibitor, single point]",–
CC(C)(C)c1ccc(C2=NC(=O)C(CC(=O)O)S2)cc1 (stereo not given),active: 26.7 µM,–
C(=N\N1CCN(Cc2cccc3ccccc23)CC1)/c1cccs1,–,inactive: -8.52%
COc1ccc(/C=C(/NC(=O)c2ccccc2)C(=O)NC2CCS(=O)(=O)C2)cc1 (stereo not given),active: 15 µM,–
CCOC(=O)C1=CN(c2cccc(F)c2)C=C(C(=O)OCC)C1c1cc(OC)c(O)c([N+](=O)[O-])c1,"inconclusive: 23.8 µM [inhibitor, single point]",–
COc1ccc(CCNC(=O)CN(c2ccccc2OC)S(C)(=O)=O)cc1,–,inactive: -0.0645%
CN(C)CCOC1c2ccccc2CCc2ccc3ccccc3c21 (stereo not given),–,inactive: -3.87%

# Reprinted at random: 2 compounds from above
SMILES,Potency,"max response, negative = inhibition"
COc1ccc(S(=O)(=O)N2CCC(C(=O)NCc3ccc(C)cc3)CC2)cc1,"inconclusive: 29.9 µM [inhibitor, single point]",–
O=C(NNS(=O)(=O)c1ccccc1)C1CCN(S(=O)(=O)c2ccccc2)CC1,"inconclusive: 21.2 µM [inhibitor, partial curve]",–
